From PMC9266683
No constants are given. Whether binding was seen depends on the method and setting. Some results given as binding are weak or reduced against the parent protein; the word gives no strength. Tags and fused reporters may be left off the sequences shown.

Amino acid sequences for entries named in this document (tags omitted). A change or cut given only in a name is not applied to a line headed by its entry. Chains listed by the source or under a name are the forms on record and can include a tag or linker. Residues count along the entry.
UniProt O48686, residues 1-390: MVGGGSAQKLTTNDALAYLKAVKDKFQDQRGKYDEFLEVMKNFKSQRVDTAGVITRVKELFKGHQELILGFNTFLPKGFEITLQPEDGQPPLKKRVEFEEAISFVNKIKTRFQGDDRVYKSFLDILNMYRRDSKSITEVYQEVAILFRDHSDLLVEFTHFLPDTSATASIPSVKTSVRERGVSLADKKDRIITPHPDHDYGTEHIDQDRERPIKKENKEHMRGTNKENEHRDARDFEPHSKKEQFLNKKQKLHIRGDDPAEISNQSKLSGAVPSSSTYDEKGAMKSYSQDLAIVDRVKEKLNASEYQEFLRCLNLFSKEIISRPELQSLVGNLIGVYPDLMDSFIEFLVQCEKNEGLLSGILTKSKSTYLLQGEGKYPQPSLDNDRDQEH
UniProt Q9XIE1: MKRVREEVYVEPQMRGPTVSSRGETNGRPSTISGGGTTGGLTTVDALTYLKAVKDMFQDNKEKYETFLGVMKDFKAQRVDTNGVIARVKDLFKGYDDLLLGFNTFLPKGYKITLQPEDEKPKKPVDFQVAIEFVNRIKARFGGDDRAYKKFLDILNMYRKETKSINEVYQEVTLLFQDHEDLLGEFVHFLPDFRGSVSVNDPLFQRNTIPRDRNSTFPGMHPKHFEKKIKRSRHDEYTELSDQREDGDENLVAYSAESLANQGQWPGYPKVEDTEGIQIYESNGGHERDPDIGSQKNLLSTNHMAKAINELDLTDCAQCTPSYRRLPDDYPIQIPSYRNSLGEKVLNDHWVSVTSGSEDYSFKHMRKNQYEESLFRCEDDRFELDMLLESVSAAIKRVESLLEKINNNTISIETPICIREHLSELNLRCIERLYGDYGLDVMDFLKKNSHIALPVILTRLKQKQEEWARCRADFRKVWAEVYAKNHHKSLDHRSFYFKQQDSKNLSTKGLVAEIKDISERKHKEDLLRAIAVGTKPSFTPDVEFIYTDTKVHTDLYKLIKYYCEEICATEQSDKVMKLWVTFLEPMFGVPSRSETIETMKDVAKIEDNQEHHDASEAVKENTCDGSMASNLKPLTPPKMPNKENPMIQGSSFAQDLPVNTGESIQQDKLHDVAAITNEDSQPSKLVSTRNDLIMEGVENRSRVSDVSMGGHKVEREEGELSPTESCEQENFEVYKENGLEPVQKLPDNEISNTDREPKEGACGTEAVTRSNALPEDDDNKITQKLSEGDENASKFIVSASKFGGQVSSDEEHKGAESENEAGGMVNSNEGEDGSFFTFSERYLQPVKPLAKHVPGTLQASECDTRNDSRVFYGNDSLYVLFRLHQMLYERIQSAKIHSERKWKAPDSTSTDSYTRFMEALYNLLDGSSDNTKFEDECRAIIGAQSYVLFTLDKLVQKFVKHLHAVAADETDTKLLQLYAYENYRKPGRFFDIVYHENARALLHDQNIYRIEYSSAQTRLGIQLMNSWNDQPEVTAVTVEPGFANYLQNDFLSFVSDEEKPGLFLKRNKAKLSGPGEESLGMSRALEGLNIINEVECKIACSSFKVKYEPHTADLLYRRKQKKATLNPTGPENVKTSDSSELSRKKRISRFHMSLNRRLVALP
UniProt Q9XIK6: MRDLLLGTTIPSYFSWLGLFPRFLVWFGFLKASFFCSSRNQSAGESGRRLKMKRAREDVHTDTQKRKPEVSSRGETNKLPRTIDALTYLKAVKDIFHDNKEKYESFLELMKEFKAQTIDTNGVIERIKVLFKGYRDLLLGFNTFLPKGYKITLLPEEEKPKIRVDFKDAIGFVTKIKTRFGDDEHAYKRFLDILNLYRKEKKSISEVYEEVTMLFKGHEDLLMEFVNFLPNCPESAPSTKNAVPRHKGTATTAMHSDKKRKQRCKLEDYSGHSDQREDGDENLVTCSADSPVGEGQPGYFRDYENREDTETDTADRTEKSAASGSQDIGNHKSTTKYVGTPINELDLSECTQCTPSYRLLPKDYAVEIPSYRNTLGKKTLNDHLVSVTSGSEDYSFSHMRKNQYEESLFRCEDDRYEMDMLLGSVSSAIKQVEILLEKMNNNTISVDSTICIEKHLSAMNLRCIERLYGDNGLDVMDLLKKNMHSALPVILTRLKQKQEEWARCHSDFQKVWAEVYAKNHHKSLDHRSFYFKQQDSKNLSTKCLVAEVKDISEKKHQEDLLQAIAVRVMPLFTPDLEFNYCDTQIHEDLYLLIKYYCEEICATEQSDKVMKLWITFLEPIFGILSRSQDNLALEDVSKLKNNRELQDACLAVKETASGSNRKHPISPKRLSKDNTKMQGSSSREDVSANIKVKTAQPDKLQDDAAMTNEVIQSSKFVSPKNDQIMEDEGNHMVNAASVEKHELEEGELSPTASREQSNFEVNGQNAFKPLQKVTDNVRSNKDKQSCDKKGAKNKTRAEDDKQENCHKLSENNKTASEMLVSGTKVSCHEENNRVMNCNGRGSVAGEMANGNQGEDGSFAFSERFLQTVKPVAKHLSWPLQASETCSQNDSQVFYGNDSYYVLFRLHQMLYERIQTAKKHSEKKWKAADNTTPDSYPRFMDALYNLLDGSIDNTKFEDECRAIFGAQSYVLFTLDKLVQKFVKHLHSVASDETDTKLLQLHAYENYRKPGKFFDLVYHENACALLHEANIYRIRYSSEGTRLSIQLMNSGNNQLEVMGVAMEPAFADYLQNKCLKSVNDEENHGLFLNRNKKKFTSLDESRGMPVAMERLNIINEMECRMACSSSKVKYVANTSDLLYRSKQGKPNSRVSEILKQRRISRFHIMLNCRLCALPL
UniProt O04539: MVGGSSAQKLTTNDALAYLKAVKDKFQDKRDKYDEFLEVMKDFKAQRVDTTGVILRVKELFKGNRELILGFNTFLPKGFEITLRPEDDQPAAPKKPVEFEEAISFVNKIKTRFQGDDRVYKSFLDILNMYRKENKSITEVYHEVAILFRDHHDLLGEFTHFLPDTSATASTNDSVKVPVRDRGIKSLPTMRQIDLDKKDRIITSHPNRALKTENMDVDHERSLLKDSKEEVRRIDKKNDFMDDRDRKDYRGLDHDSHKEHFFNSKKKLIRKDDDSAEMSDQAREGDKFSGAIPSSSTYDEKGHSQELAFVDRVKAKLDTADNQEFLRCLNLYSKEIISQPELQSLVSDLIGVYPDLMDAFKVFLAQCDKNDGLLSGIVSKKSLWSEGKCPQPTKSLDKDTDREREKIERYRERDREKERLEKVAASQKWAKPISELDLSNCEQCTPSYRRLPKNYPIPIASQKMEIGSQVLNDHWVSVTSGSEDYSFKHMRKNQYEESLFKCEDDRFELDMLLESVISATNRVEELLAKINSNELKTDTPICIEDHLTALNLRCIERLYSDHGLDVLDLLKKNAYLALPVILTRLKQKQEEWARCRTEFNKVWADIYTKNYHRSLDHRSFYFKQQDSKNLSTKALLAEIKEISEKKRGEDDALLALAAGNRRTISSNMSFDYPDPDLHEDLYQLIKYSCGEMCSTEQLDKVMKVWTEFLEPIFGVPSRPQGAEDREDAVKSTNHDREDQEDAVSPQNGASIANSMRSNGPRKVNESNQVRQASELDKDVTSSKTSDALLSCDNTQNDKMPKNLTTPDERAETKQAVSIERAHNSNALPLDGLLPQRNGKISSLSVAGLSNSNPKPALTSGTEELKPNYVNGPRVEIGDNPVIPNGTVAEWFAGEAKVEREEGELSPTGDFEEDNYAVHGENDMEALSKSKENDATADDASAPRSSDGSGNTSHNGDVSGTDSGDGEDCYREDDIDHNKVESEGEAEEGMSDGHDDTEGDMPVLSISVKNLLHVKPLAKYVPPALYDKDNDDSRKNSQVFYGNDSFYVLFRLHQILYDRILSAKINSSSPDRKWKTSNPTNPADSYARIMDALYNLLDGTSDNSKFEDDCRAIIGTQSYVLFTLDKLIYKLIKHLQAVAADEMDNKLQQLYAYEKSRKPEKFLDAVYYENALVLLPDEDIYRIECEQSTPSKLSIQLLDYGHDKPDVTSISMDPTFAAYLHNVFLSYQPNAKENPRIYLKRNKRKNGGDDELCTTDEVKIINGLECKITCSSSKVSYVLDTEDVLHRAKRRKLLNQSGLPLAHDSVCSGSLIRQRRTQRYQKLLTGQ
SNL4-PAH (aa 1–420), fused to the GAL4 binding domain: residues 1-420 of O04539

T1: SNL1 (SIN3-LIKE 1), full length, fused to the GAL4 binding domain (Arabidopsis thaliana) (UniProt Q9SRH9)
T1 sequence: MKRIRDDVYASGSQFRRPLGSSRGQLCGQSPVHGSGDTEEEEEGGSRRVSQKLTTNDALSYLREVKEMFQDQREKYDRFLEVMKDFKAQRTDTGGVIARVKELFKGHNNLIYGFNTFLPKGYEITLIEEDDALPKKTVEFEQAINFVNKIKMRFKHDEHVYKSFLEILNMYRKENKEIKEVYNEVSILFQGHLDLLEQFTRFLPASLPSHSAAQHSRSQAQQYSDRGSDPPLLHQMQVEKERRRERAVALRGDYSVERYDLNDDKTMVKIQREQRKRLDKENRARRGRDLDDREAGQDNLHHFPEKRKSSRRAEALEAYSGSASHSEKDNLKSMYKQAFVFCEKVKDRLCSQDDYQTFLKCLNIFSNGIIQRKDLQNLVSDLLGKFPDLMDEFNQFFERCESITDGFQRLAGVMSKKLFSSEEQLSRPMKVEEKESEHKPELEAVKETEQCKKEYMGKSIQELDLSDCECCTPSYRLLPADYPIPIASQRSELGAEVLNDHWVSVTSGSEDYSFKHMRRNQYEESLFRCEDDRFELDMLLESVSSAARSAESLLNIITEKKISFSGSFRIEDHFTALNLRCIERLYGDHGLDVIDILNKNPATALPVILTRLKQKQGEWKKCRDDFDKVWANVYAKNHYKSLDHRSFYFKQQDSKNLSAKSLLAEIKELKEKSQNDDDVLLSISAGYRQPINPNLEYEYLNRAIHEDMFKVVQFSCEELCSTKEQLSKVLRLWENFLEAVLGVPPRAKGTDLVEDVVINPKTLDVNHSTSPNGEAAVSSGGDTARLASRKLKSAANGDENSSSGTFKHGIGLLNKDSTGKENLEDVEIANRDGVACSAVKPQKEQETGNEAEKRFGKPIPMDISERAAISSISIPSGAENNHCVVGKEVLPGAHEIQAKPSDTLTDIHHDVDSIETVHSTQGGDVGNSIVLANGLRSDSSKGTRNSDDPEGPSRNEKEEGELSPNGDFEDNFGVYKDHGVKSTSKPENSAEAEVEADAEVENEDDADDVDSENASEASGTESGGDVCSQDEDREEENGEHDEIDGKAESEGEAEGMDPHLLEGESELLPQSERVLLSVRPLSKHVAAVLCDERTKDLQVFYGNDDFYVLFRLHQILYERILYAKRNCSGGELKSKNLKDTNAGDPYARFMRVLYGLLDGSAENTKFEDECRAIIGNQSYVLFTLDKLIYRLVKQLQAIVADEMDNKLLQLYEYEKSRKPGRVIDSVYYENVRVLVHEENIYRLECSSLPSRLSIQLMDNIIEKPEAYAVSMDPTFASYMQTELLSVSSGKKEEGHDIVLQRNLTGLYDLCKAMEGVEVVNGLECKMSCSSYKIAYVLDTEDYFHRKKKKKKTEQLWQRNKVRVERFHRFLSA

T2: SNL2-PAH (aa 1–430), fused to the GAL4 binding domain (Arabidopsis thaliana) (UniProt Q9LFQ3)
T2 sequence: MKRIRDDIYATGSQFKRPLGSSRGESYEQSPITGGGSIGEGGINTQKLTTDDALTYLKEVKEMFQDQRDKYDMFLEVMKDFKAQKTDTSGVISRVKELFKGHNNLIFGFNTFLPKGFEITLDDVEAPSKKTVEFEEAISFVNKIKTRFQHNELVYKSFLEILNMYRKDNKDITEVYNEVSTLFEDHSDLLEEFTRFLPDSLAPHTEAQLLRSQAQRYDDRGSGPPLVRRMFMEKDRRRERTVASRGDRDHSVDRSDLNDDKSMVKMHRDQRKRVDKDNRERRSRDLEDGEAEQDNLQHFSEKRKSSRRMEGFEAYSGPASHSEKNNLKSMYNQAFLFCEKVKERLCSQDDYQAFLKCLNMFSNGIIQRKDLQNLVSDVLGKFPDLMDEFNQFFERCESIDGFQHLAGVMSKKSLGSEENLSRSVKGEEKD


Tests used:
Assay in all cases: two-hybrid; Matchmaker GAL4 two-hybrid system 3, yeast AH109; VAL1 constructs in pGADT7 (AD), SNL constructs in pGBKT7 (BD); growth on medium lacking Trp, Leu, His and Ade, 3-5 d at 30 °C
[1] = target: SNL3-PAH (aa 1–390), fused to the GAL4 binding domain (Arabidopsis thaliana) (UniProt O48686)
[2] = target: T1, SNL1 (SIN3-LIKE 1), full length, fused to the GAL4 binding domain (Arabidopsis thaliana)
[3] = target: SNL5 (SIN3-LIKE 5), full length, fused to the GAL4 binding domain (Arabidopsis thaliana) (UniProt Q9XIE1)
[4] = target: SNL6 (SIN3-LIKE 6), full length, fused to the GAL4 binding domain (Arabidopsis thaliana) (UniProt Q9XIK6)
[5] = target: T2, SNL2-PAH (aa 1–430), fused to the GAL4 binding domain (Arabidopsis thaliana)
[6] = target: SNL4 (SIN3-LIKE 4), full length, fused to the GAL4 binding domain (Arabidopsis thaliana) (UniProt O04539)
[7] = target: SNL4-PAH (aa 1–420), fused to the GAL4 binding domain (Arabidopsis thaliana) (UniProt O04539)

Binder | binding [1] | binding [2] | binding [3] | binding [4] | binding [5] | binding [6] | binding [7]
VAL1 (VIVIPAROUS1/ABSCISIC ACID …3-LIKE1), full length, fused to the GAL4 activating domain (protein, UniProt Q8W4L5 1-790) MFEVKMGSKMCMNASCGTTSTVEWKKGWPLRSGLLADLCYRCGSAYESSLFCEQFHKDQSGWRECYLCSKRLHCGCIASKVTIELMDYGGVGCSTCACCHQLNLNTRGENPGVFSRLPMKTLADRQHVNGESGGRNEGDLFSQPLVMGGDKREEFMPHRGFGKLMSPESTTTGHRLDAAGEMHESSPLQPSLNMGLAVNPFSPSFATEAVEGMKHISPSQSNMVHCSASNILQKPSRPAISTPPVASKSAQARIGRPPVEGRGRGHLLPRYWPKYTDKEVQQISGNLNLNIVPLFEKTLSASDAGRIGRLVLPKACAEAYFPPISQSEGIPLKIQDVRGREWTFQFRYWPNNNSRMYVLEGVTPCIQSMMLQAGDTVTFSRVDPGGKLIMGSRKAANAGDMQGCGLTNGTSTEDTSSSGVTENPPSINGSSCISLIPKELNGMPENLNSETNGGRIGDDPTRVKEKKRTRTIGAKNKRLLLHSEESMELRLTWEEAQDLLRPSPSVKPTIVVIEEQEIEEYDEPPVFGKRTIVTTKPSGEQERWATCDDCSKWRRLPVDALLSFKWTCIDNVWDVSRCSCSAPEESLKELENVLKVGREHKKRRTGESQAAKSQQEPCGLDALASAAVLGDTIGEPEVATTTRHPRHRAGCSCIVCIQPPSGKGRHKPTCGCTVCSTVKRRFKTLMMRRKKKQLERDVTAAEDKKKKDMELAESDKSKEEKEVNTARIDLNSDPYNKEDVEAVAVEKEESRKRAIGQCSGVVAQDASDVLGVTELEGEGKNVREEPRVSS | binds | binds | binds | binds | binds | binds | binds
VAL1-CW (aa 458–673), fused to the GAL4 activating domain (domain or fragment, UniProt Q8W4L5 458-673) DDPTRVKEKKRTRTIGAKNKRLLLHSEESMELRLTWEEAQDLLRPSPSVKPTIVVIEEQEIEEYDEPPVFGKRTIVTTKPSGEQERWATCDDCSKWRRLPVDALLSFKWTCIDNVWDVSRCSCSAPEESLKELENVLKVGREHKKRRTGESQAAKSQQEPCGLDALASAAVLGDTIGEPEVATTTRHPRHRAGCSCIVCIQPPSGKGRHKPTCGCT | binds | binds | binds | binds | binds | binds | binds
